Reference: publication doi:10.1101/2025.09.09.675182
Results are given in words; binding and its absence hold for the method and conditions named. Binding seen in cells or lysates may run through a third protein. A yes stands for co-enrichment or nearness to the bait. Other partners may have been found.

By UniProt entry, the sequences of proteins in these tests, tags left out.
UniProt O00139: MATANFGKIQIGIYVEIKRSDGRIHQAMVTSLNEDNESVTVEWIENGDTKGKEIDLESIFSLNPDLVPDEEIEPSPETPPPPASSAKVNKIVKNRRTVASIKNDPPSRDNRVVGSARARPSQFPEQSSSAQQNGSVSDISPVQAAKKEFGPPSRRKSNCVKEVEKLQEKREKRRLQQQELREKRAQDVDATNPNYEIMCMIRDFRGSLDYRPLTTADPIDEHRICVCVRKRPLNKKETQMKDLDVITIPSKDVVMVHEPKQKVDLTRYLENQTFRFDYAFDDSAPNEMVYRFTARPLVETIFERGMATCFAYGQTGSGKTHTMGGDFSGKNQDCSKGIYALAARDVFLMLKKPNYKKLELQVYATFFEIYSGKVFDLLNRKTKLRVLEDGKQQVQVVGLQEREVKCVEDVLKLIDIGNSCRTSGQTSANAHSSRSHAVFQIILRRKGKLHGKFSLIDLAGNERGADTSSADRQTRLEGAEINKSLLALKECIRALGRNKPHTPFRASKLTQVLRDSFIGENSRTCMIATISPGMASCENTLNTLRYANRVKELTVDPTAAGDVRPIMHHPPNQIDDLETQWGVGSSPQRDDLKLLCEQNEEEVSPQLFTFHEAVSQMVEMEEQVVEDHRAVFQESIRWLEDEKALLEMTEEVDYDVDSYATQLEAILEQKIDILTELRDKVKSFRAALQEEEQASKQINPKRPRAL
UniProt O95235: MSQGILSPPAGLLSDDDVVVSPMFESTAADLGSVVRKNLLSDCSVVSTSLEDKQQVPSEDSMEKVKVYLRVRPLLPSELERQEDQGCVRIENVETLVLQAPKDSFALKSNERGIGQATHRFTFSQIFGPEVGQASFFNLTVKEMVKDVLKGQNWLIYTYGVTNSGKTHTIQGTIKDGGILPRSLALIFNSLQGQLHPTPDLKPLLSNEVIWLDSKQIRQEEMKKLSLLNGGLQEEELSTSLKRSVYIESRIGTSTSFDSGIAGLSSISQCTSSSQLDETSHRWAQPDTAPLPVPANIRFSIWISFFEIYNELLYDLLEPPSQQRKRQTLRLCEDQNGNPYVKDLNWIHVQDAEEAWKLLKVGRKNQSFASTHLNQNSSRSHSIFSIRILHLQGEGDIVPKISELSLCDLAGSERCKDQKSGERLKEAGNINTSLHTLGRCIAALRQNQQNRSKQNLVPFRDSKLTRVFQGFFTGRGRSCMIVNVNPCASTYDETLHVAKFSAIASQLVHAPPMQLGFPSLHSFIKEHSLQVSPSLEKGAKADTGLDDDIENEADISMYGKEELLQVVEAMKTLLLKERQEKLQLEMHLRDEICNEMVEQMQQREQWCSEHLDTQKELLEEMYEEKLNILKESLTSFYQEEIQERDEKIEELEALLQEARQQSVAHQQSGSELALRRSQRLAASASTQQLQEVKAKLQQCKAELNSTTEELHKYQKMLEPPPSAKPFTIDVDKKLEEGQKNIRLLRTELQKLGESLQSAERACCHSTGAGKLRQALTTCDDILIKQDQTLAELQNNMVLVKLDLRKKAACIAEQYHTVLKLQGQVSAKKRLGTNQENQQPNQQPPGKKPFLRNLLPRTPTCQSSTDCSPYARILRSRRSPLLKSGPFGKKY
UniProt O75367: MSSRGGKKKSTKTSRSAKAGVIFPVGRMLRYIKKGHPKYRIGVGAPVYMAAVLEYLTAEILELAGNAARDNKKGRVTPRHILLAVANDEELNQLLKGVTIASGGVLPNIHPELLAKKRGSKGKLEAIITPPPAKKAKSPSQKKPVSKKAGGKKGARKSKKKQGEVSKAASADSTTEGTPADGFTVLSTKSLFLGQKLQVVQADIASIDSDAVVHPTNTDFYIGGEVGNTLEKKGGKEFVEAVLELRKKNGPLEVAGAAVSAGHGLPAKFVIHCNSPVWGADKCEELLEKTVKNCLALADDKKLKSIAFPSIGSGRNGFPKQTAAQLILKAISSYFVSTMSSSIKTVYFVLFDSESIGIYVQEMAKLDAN
UniProt Q15021: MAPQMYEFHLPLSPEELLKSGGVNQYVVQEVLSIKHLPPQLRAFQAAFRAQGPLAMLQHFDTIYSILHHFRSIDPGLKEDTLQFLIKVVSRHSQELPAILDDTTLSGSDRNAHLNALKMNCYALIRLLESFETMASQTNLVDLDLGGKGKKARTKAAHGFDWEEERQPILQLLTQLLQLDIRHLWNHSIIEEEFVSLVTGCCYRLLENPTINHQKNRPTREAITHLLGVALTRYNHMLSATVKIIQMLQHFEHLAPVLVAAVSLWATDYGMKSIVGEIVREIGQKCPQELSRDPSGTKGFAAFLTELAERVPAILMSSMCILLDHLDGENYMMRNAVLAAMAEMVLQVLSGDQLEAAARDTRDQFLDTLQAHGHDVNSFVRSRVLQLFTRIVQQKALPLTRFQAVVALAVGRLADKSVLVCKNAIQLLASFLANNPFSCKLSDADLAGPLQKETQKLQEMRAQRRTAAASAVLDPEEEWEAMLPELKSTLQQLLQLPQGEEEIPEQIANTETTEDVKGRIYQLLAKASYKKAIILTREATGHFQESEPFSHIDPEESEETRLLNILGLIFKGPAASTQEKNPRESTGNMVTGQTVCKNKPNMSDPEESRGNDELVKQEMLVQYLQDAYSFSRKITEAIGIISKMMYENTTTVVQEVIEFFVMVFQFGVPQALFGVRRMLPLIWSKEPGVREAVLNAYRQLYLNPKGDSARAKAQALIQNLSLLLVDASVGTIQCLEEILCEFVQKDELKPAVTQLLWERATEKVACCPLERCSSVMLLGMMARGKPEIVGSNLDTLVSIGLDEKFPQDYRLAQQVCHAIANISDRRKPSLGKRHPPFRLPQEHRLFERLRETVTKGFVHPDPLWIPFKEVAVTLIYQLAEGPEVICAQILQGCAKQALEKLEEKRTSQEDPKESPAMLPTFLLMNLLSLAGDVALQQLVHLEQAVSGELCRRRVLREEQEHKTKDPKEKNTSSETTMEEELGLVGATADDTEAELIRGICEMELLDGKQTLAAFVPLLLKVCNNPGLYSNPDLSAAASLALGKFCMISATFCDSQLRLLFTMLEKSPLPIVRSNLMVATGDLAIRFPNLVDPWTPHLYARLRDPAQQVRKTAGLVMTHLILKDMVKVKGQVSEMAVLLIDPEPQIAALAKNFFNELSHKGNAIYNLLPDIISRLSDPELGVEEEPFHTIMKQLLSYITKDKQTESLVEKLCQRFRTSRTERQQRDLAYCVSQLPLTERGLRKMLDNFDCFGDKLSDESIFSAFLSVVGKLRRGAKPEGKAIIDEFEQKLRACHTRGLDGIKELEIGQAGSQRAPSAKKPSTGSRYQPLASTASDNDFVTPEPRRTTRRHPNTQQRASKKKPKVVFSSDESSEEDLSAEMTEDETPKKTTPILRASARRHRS
UniProt Q15003: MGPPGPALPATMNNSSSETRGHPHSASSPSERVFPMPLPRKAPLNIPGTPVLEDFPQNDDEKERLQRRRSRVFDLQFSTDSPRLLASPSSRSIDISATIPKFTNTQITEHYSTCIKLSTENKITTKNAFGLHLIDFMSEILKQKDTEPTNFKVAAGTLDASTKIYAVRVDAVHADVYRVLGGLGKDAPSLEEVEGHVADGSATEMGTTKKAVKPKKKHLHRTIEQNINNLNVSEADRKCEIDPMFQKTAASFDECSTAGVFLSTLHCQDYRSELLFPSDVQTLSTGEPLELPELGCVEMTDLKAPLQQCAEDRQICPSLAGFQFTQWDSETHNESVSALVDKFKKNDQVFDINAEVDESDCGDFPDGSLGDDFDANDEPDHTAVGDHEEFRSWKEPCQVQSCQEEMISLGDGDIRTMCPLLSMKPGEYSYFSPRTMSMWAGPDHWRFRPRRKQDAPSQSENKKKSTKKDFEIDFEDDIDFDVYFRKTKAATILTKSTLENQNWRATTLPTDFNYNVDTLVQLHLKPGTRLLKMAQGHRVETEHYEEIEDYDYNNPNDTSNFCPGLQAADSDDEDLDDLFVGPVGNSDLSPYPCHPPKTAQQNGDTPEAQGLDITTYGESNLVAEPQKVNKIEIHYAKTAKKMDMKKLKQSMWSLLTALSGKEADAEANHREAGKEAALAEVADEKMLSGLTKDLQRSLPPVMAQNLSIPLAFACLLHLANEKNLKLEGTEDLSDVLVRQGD
UniProt O95347: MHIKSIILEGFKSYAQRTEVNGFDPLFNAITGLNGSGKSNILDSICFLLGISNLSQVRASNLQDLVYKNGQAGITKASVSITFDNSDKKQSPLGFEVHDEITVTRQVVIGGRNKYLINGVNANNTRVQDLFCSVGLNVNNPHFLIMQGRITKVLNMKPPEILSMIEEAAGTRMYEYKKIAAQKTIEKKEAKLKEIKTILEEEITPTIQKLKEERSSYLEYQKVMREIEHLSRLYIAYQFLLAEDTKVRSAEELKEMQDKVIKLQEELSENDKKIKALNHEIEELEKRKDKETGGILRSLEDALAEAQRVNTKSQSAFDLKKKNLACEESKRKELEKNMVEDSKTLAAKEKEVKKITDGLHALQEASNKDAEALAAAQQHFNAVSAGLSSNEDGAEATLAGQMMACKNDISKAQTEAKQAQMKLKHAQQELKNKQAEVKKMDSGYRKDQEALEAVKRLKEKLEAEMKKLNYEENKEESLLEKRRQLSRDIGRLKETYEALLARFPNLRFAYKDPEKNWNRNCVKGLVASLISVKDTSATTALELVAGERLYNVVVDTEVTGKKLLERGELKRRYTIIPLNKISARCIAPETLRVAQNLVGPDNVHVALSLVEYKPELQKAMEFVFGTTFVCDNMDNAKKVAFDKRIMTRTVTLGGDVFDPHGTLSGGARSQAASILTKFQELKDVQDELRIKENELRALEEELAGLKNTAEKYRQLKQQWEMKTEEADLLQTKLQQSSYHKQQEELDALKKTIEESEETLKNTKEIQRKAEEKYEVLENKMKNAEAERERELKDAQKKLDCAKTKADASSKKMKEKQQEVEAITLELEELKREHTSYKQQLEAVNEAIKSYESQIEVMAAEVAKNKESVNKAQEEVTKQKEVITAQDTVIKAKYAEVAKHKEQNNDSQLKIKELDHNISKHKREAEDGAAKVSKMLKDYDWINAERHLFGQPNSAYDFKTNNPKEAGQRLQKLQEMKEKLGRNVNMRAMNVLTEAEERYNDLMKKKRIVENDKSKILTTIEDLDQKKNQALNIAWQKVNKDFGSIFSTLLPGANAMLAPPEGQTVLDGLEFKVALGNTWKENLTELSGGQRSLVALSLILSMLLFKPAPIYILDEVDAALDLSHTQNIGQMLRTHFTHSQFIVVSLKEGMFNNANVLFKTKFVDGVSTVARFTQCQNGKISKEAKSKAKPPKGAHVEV
UniProt Q9ULW0: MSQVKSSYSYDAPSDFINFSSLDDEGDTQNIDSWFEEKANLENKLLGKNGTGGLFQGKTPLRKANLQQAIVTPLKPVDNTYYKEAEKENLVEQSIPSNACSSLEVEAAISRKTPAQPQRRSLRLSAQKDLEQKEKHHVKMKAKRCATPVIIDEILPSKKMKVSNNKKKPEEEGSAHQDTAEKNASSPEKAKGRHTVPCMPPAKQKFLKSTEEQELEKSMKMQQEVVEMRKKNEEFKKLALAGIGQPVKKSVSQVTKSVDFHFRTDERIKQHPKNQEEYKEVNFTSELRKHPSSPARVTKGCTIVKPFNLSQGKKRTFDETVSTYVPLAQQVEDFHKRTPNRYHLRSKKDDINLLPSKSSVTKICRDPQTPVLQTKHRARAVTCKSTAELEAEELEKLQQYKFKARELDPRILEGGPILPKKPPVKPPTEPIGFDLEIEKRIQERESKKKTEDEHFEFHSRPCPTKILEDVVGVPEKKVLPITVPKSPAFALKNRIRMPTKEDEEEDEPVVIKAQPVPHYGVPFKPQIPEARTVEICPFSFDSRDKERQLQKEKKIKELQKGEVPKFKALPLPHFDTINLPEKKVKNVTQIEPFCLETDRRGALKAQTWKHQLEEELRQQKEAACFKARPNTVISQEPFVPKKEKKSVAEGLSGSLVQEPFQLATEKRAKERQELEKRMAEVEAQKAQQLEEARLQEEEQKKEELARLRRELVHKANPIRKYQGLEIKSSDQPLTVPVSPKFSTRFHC
UniProt P40222: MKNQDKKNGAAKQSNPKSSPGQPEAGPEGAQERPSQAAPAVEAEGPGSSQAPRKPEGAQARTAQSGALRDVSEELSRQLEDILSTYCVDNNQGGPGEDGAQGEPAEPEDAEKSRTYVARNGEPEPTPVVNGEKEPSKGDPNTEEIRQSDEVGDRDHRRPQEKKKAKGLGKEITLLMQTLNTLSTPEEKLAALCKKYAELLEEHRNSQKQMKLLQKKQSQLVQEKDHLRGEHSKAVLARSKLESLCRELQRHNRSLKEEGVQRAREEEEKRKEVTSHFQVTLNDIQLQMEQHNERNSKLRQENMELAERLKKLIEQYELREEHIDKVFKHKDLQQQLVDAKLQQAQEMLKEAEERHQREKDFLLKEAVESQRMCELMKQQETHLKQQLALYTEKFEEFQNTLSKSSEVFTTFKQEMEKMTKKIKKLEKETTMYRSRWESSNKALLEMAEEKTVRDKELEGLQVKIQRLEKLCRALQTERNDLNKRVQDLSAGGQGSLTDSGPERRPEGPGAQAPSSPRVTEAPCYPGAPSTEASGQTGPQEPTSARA

T1: Cytoskeleton Associated Protein-2 (CKAP2) (human (endogenous in RPE1)) (UniProt Q8WWK9)
T1 sequence: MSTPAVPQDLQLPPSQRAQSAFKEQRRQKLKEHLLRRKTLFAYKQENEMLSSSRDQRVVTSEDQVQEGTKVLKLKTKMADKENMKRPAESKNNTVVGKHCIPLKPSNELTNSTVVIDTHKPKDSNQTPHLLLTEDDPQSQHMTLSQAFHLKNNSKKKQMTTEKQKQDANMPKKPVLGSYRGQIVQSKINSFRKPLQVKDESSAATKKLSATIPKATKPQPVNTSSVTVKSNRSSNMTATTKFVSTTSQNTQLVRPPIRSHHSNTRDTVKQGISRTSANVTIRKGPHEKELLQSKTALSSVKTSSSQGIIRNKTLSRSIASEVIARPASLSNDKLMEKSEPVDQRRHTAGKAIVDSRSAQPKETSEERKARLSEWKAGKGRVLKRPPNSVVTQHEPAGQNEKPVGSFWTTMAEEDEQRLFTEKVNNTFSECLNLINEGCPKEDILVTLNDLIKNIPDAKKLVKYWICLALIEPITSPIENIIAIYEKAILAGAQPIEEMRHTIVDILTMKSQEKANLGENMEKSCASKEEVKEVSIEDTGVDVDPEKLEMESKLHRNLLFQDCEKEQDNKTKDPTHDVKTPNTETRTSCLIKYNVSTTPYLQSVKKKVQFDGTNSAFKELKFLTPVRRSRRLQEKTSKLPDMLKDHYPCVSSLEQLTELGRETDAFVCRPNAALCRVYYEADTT

B1: CPSF1 (protein, UniProt Q10570 1-1443)
chain: MYAVYKQAHPPTGLEFSMYCNFFNNSERNLVVAGTSQLYVYRLNRDAEALTKNDRSTEGKAHREKLELAASFSFFGNVMSMASVQLAGAKRDALLLSFKDAKLSVVEYDPGTHDLKTLSLHYFEEPELRDGFVQNVHTPRVRVDPDGRCAAMLVYGTRLVVLPFRRESLAEEHEGLVGEGQRSSFLPSYIIDVRALDEKLLNIIDLQFLHGYYEPTLLILFEPNQTWPGRVAVRQDTCSIVAISLNITQKVHPVIWSLTSLPFDCTQALAVPKPIGGVVVFAVNSLLYLNQSVPPYGVALNSLTTGTTAFPLRTQEGVRITLDCAQATFISYDKMVISLKGGEIYVLTLITDGMRSVRAFHFDKAAASVLTTSMVTMEPGYLFLGSRLGNSLLLKYTEKLQEPPASAVREAADKEEPPSKKKRVDATAGWSAAGKSVPQDEVDEIEVYGSEAQSGTQLATYSFEVCDSILNIGPCANAAVGEPAFLSEEFQNSPEPDLEIVVCSGHGKNGALSVLQKSIRPQVVTTFELPGCYDMWTVIAPVRKEEEDNPKGEGTEQEPSTTPEADDDGRRHGFLILSREDSTMILQTGQEIMELDTSGFATQGPTVFAGNIGDNRYIVQVSPLGIRLLEGVNQLHFIPVDLGAPIVQCAVADPYVVIMSAEGHVTMFLLKSDSYGGRHHRLALHKPPLHHQSKVITLCLYRDLSGMFTTESRLGGARDELGGRSGPEAEGLGSETSPTVDDEEEMLYGDSGSLFSPSKEEARRSSQPPADRDPAPFRAEPTHWCLLVRENGTMEIYQLPDWRLVFLVKNFPVGQRVLVDSSFGQPTTQGEARREEATRQGELPLVKEVLLVALGSRQSRPYLLVHVDQELLIYEAFPHDSQLGQGNLKVRFKKVPHNINFREKKPKPSKKKAEGGGAEEGAGARGRVARFRYFEDIYGYSGVFICGPSPHWLLVTGRGALRLHPMAIDGPVDSFAPFHNVNCPRGFLYFNRQGELRISVLPAYLSYDAPWPVRKIPLRCTAHYVAYHVESKVYAVATSTNTPCARIPRMTGEEKEFETIERDERYIHPQQEAFSIQLISPVSWEAIPNARIELQEWEHVTCMKTVSLRSEETVSGLKGYVAAGTCLMQGEEVTCRGRILIMDVIEVVPEPGQPLTKNKFKVLYEKEQKGPVTALCHCNGHLVSAIGQKIFLWSLRASELTGMAFIDTQLYIHQMISVKNFILAADVMKSISLLRYQEESKTLSLVSRDAKPLEVYSVDFMVDNAQLGFLVSDRDRNLMVYMYLPEAKESFGGMRLLRRADFHVGAHVNTFWRTPCRGATEGLSKKSVVWENKHITWFATLDGGIGLLLPMQEKTYRRLLMLQNALTTMLPHHAGLNPRAFRMLHVDRRTLQNAVRNVLDGELLNRYLYLSTMERSELAKKIGTTPDIILDDLLETDRVTAHF
B2: KIF23 (protein, UniProt Q02241 1-960)
chain: MKSARAKTPRKPTVKKGSQTNLKDPVGVYCRVRPLGFPDQECCIEVINNTTVQLHTPEGYRLNRNGDYKETQYSFKQVFGTHTTQKELFDVVANPLVNDLIHGKNGLLFTYGVTGSGKTHTMTGSPGEGGLLPRCLDMIFNSIGSFQAKRYVFKSNDRNSMDIQCEVDALLERQKREAMPNPKTSSSKRQVDPEFADMITVQEFCKAEEVDEDSVYGVFVSYIEIYNNYIYDLLEEVPFDPIKPKPPQSKLLREDKNHNMYVAGCTEVEVKSTEEAFEVFWRGQKKRRIANTHLNRESSRSHSVFNIKLVQAPLDADGDNVLQEKEQITISQLSLVDLAGSERTNRTRAEGNRLREAGNINQSLMTLRTCMDVLRENQMYGTNKMVPYRDSKLTHLFKNYFDGEGKVRMIVCVNPKAEDYEENLQVMRFAEVTQEVEVARPVDKAICGLTPGRRYRNQPRGPVGNEPLVTDVVLQSFPPLPSCEILDINDEQTLPRLIEALEKRHNLRQMMIDEFNKQSNAFKALLQEFDNAVLSKENHMQGKLNEKEKMISGQKLEIERLEKKNKTLEYKIEILEKTTTIYEEDKRNLQQELETQNQKLQRQFSDKRRLEARLQGMVTETTMKWEKECERRVAAKQLEMQNKLWVKDEKLKQLKAIVTEPKTEKPERPSRERDREKVTQRSVSPSPVPLSSNYIAQISNGQQLMSQPQLHRRSNSCSSISVASCISEWEQKIPTYNTPLKVTSIARRRQQEPGQSKTCIVSDRRRGMYWTEGREVVPTFRNEIEIEEDHCGRLLFQPDQNAPPIRLRHRRSRSAGDRWVDHKPASNMQTETVMQPHVPHAITVSVANEKALAKCEKYMLTHQELASDGEIETKLIKGDIYKTRGGGQSVQFTDIETLKQESPNGSRKRRSSTVAPAQPDGAESEWTDVETRCSVAVEMRAGSQLGPGYQHHAQPKRKKP

What follows are molecules tested against T1, Cytoskeleton Associated Protein-2 (CKAP2) (human (endogenous in RPE1)) (assay: affinity purification with mass spectrometry).

binding, binds:
KI67 (from UniProt P46013 1-3256)
KIF2A (from UniProt O00139 1-706)
KIF20A (from UniProt O95235 1-890)
MACROH2A1 (from UniProt O75367 1-369)
NCAPD2 (from UniProt Q15021 1-1401)
NCAPH (from UniProt Q15003 1-741)
SMC2 (from UniProt O95347 1-1197)
SMC4 (from UniProt Q9NTJ3 1-1288)
TPX2 (from UniProt Q9ULW0 1-747)
TXLNA (from UniProt P40222 1-546)
B1
B2
